PMC10235086
No constants are given. Whether binding was seen depends on the method and setting. In cells and extracts the contact can be indirect. A yes stands for co-enrichment or nearness to the bait. Other partners may have been found.

B1: Ycs4 (protein, UniProt Q06156 1-1176)
chain: MSGFSLSEYLTKFQTTDRESYPRLQDPSRELNVIIDQLAVSPEQIDASPDSLEALIDLCHDFPHLTPKLQTQLSYLISSSLSNLSKDIKANLSSNVNFTEIGGLIPQWKRHLEEYGYLIQVLLTFLQDELHKVSSQSTNLNRSAKNSKNDSANVELFKRDCNQMENLLESITKLLEINLSKIFQTTPEKDLFIGLFTRPLFVLLEIEPVTKVSSLKMFIQRILAMCVKNHGQSSSIQSSLMTNLTYFLHLSVFNAELLKLLNDEYNYPQLTEDILKEISTRVFNAKDTTGPKAISNFLIKLSELSPGIMLRQMNLVITLLNNSSITLRCSVVEACGNIVAELAQDPQTMEHYKQQIAVLIELLEERFQDSNPYVRTKAIQGCSKICDLSSKFNKSKAKFTSLAVRSLQDRSSLVRRNSVKLLSKLLLKHPFKAIHGSQLRLSEWEEYLKGSESQLNSTLKKVESQETLNDTIERSLIEEEVEQDEGQCRTELEGSFNKSAELSRIENEVENINATNTSVLMKLKLMIVYYKDAISFIKEIHKSIELISNLLFSKNRNEVLESMDFLVLADAFDIELSEFGIKKMLHLVWMKGTNDEGTSISVHLIECYKQLFLTAPDSCNMQEKAAHIAKNLINLSIGASIADLASLEQLLGMMYEQKLIDQHVINILWAIYNSASKASMQKEQNVNNRDSEKGFSKEQIHGSIIILGMLSLADNEIALKGLESLLNIGLGAVGLKDLTLCRYSCLALERMVPKRSTIITKAINQELEDVAVKKLYAIIINYTKDNEYYPMCEQALSALFTISSKPDILATDLIREKTMMTFGKPEEEDSILSLEQSSRVVSLSQLLFIVGQVAIKTLVYLEKCEAEFKKRKIEAETRNGKVKNQGADVTNTTQDNGGDKELEMIGGTNEDDFTDAIQFVKENELLFGEKSILGKFCPIVEEIVSNSSRFSDPMLQRTATLCLEKLMCLSSKYCEKSLPLLITVMEKSPDPTIRSNAVLGLGDMAVCFNNLVDENTDYLYRRLHDENLMVQRTCLMTVTFLILAGQVKVKGQLGEMAKCLDNPDQGISDMCRLFFTELASKDNAIYNGFIDIFSNLSSDDLLGKESFKKIIKFLLTFIDKERHQKQLNEKLVGRLRKCETQKQWDDIAFVLNNLPYKNEDVTALLEQGFKVVSAKE
B2: Smc4 (protein, UniProt Q12267 1-1418)
chain: MSDSPLSKRQKRKSAQEPELSLDQGDAEEDSQVENRVNLSENTPEPDLPALEASYSKSYTPRKLVLSSGENRYAFSQPTNSTTTSLHVPNLQPPKTSSRGRDHKSYSQSPPRSPGRSPTRRLELLQLSPVKNSRVELQKIYDRHQSSSKQQSRLFINELVLENFKSYAGKQVVGPFHTSFSAVVGPNGSGKSNVIDSMLFVFGFRANKMRQDRLSDLIHKSEAFPSLQSCSVAVHFQYVIDESSGTSRIDEEKPGLIITRKAFKNNSSKYYINEKESSYTEVTKLLKNEGIDLDHKRFLILQGEVENIAQMKPKAEKESDDGLLEYLEDIIGTANYKPLIEERMGQIENLNEVCLEKENRFEIVDREKNSLESGKETALEFLEKEKQLTLLRSKLFQFKLLQSNSKLASTLEKISSSNKDLEDEKMKFQESLKKVDEIKAQRKEIKDRISSCSSKEKTLVLERRELEGTRVSLEERTKNLVSKMEKAEKTLKSTKHSISEAENMLEELRGQQTEHETEIKDLTQLLEKERSILDDIKLSLKDKTKNISAEIIRHEKELEPWDLQLQEKESQIQLAESELSLLEETQAKLKKNVETLEEKILAKKTHKQELQDLILDLKKKLNSLKDERSQGEKNFTSAHLKLKEMQKVLNAHRQRAMEARSSLSKAQNKSKVLTALSRLQKSGRINGFHGRLGDLGVIDDSFDVAISTACPRLDDVVVDTVECAQHCIDYLRKNKLGYARFILLDRLRQFNLQPISTPENVPRLFDLVKPKNPKFSNAFYSVLRDTLVAQNLKQANNVAYGKKRFRVVTVDGKLIDISGTMSGGGNHVAKGLMKLGTNQSDKVDDYTPEEVDKIERELSERENNFRVASDTVHEMEEELKKLRDHEPDLESQISKAEMEADSLASELTLAEQQVKEAEMAYVKAVSDKAQLNVVMKNLERLRGEYNDLQSETKTKKEKIKGLQDEIMKIGGIKLQMQNSKVESVCQKLDILVAKLKKVKSASKKSGGDVVKFQKLLQNSERDVELSSDELKVIEEQLKHTKLALAENDTNMNETLNLKVELKEQSEQLKEQMEDMEESINEFKSIEIEMKNKLEKLNSLLTYIKSEITQQEKGLNELSIRDVTHTLGMLDDNKMDSVKEDVKNNQELDQEYRSCETQDESEIKDAETSCDNYHPMNIDETSDEVSRGIPRLSEDELRELDVELIESKINELSYYVEETNVDIGVLEEYARRLAEFKRRKLDLNNAVQKRDEVKEQLGILKKKRFDEFMAGFNIISMTLKEMYQMITMGGNAELELVDSLDPFSEGVTFSVMPPKKSWRNITNLSGGEKTLSSLALVFALHKYKPTPLYVMDEIDAALDFRNVSIVANYIKERTKNAQFIVISLRNNMFELAQQLVGVYKRDNRTKSTTIKNIDILNRT
B3: Smc2 (protein, UniProt P38989 1-1170)
chain: MKVEELIIDGFKSYATRTVITDWDPQFNAITGLNGSGKSNILDAICFVLGIASMSTVRASSLQDLIYKRGQAGVTKASVTIVFDNTDKSNSPIGFTNSPQISVTRQVVLGGTSKYLINGHRAPQQSVLQLFQSVQLNINNPNFLIMQGKITKVLNMKPSEILSLIEEAAGTKMFEDRREKAERTMSKKETKLQENRTLLTEEIEPKLEKLRNEKRMFLEFQSTQTDLEKTERIVVSYEYYNIKHKHTSIRETLENGETRMKMLNEFVKKTSEEIDSLNEDVEEIKLQKEKELHKEGTISKLENKENGLLNEISRLKTSLSIKVENLNDTTEKSKALESEIASSSAKLIEKKSAYANTEKDYKMVQEQLSKQRDLYKRKEELVSTLTTGISSTGAADGGYNAQLAKAKTELNEVSLAIKKSSMKMELLKKELLTIEPKLKEATKDNELNVKHVKQCQETCDKLRARLVEYGFDPSRIKDLKQREDKLKSHYYQTCKNSEYLKRRVTNLEFNYTKPYPNFEASFVHGVVGQLFQIDNDNIRYATALQTCAGGRLFNVVVQDSQTATQLLERGRLRKRVTIIPLDKIYTRPISSQVLDLAKKIAPGKVELAINLIRFDESITKAMEFIFGNSLICEDPETAKKITFHPKIRARSITLQGDVYDPEGTLSGGSRNTSESLLVDIQKYNQIQKQIETIQADLNHVTEELQTQYATSQKTKTIQSDLNLSLHKLDLAKRNLDANPSSQIIARNEEILRDIGECENEIKTKQMSLKKCQEEVSTIEKDMKEYDSDKGSKLNELKKELKLLAKELEEQESESERKYDLFQNLELETEQLSSELDSNKTLLHNHLKSIESLKLENSDLEGKIRGVEDDLVTVQTELNEEKKRLMDIDDELNELETLIKKKQDEKKSSELELQKLVHDLNKYKSNTNNMEKIIEDLRQKHEFLEDFDLVRNIVKQNEGIDLDTYRERSKQLNEKFQELRKKVNPNIMNMIENVEKKEAALKTMIKTIEKDKMKIQETISKLNEYKRETLVKTWEKVTLDFGNIFADLLPNSFAKLVPCEGKDVTQGLEVKVKLGNIWKESLIELSGGQRSLIALSLIMALLQFRPAPMYILDEVDAALDLSHTQNIGHLIKTRFKGSQFIVVSLKEGMFANANRVFRTRFQDGTSVVSIM
B4: Brn1 (protein, UniProt P38170 1-754)
chain: MTTQLRYENNDDDERVEYNLFTNRSTMMANFEEWIKMATDNKINSRNSWNFALIDYFYDLDVLKDGENNINFQKASATLDGCIKIYSSRVDSVTTETGKLLSGLAQRKTNGASNGDDSNGGNGEGLGGDSDEANIEIDPLTGMPISNDPDVNNTRRRVYNRVLETTLVEFETIKMKELDQELIIDPLFKKALVDFDEGGAKSLLLNTLNIDNTARVIFDASIKDTQNVGQGKLQRKEEELIERDSLVDDENEPSQSLISTRNDSTVNDSVISAPSMEDEILSLGMDFIKFDQIAVCEISGSIEQLRNVVEDINQAKDFIENVNNRFDNFLTEEELQAAVPDNAEDDSDGFDMGMQQELCYPDENHDNTSHDEQDDDNVNSTTGSIFEKDLMAYFDENLNRNWRGREHWKVRNFKKANLVNKESDLLEETRTTIGDTTDKNTTDDKSMDTKKKHKQKKVLEIDFFKTDDSFEDKVFASKGRTKIDMPIKNRKNDTHYLLPDDFHFSTDRITRLFIKPGQKMSLFSHRKHTRGDVSSGLFEKSTVSANHSNNDIPTIADEHFWADNYERKEQEEKEKEQSKEVGDVVGGALDNPFEDDMDGVDFNQAFEGTDDNEEASVKLDLQDDEDHKFPIRENKVTYSRVSKKVDVRRLKKNVWRSINNLIQEHDSRKNREQSSNDSETHTEDESTKELKFSDIIQGISKMYSDDTLKDISTSFCFICLLHLANEHGLQITHTENYNDLIVNYEDLATTQAAS
B5: Fun30 (protein, UniProt P31380 1-1131)
chain: MSGSHSNDEDDVVQVPETSSPTKVASSSPLKPTSPTVPDASVASLRSRFTFKPSDPSEGAHTSKPLPSGSPEVALVNLAREFPDFSQTLVQAVFKSNSFNLQSARERLTRLRQQRQNWTWNKNASPKKSETPPPVKKSLPLANTGRLSSIHGNINNKSSKITVAKQKTSIFDRYSNVINQKQYTFELPTNLNIDSEALSKLPVNYNKKRRLVRADQHPIGKSYESSATQLGSAREKLLANRKYGRHANDNDEEEEESMMTDDDDASGDDYTESTPQINLDEQVLQFINDSDIVDLSDLSDTTMHKAQLIASHRPYSSLNAFVNTNFNDKDTEENASNKRKRRAAASANESERLLDKITQSIRGYNAIESVIKKCSSYGDLVTSQMKKWGVQVEGDNSELDLMNLGEDDDDDNDDGNNDNNNSNNNNTAGADATSKEKEDTKAVVEGFDETSAEPTPAPAPAPVERETKRIRNTTKPKVVEDEDDDVDLEAIDDELPQSEHEDDDYEEEDEDYNDEEEDVEYDDGDDDDDDDDEFVATRKNTHVISTTSRNGRKPIVKFFKGKPRLLSPEISLKDYQQTGINWLNLLYQNKMSCILADDMGLGKTCQVISFFAYLKQINEPGPHLVVVPSSTLENWLREFQKFAPALKIEPYYGSLQEREELRDILERNAGKYDVIVTTYNLAAGNKYDVSFLKNRNFNVVVYDEGHMLKNSTSERFAKLMKIRANFRLLLTGTPLQNNLKELMSLLEFIMPNLFISKKESFDAIFKQRAKTTDDNKNHNPLLAQEAITRAKTMMKPFILRRRKDQVLKHLPPKHTHIQYCELNAIQKKIYDKEIQIVLEHKRMIKDGELPKDAKEKSKLQSSSSKNLIMALRKASLHPLLFRNIYNDKIITKMSDAILDEPAYAENGNKEYIKEDMSYMTDFELHKLCCNFPNTLSKYQLHNDEWMQSGKIDALKKLLKTIIVDKQEKVLIFSLFTQVLDILEMVLSTLDYKFLRLDGSTQVNDRQLLIDKFYEDKDIPIFILSTKAGGFGINLVCANNVIIFDQSFNPHDDRQAADRAHRVGQTKEVNITTLITKDSIEEKIHQLAKNKLALDSYISEDKKSQDVLESKVSDMLEDIIYDENSKPKGTKE

Target: T1, ProteinA-Rio1 (S. cerevisiae) (UniProt Q12196)
T1 sequence: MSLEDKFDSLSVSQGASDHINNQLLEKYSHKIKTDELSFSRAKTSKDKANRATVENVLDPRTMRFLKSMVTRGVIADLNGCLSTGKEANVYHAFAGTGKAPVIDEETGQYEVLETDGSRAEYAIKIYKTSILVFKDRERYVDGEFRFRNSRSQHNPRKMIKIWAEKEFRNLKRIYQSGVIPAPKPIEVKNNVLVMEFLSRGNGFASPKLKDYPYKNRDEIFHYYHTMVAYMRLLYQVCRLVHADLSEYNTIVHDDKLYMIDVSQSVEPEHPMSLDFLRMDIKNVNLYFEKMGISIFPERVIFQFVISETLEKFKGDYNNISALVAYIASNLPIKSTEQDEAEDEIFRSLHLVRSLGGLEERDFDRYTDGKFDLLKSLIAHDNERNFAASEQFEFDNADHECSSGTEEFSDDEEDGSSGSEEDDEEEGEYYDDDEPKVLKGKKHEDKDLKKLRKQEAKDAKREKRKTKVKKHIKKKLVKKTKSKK
Test: affinity purification with mass spectrometry; ProteinA-Rio1 expressed from PGAL1-10 (2% galactose, 2 h) in pep4∆ yeast; cleared lysate (50 mM Tris-Cl pH 7.5, 10% glycerol, 150 mM NaCl, 1 mM DTT, 0.4% NP-40) on rabbit IgG agarose beads overnight at 4 °C; washed with PBS-T; on-bead digestion …; untagged Rio1 as negative control; three independent purifications

binding, binds:
B1, B2, B3, B4, B5
